At least one read-out could not be matched to a standard name with certainty.
System: herpes simplex virus type 1 (KOS strain)
Experiment: One-step growth of virus, plaque assay with vero cells
Format: cell-based
Conditions: 30 μg/ml, 24 hours, 1440 min
Description: Antiviral activity of Compound A and Compound B against one-step growth of herpes simplex virus type 1 (KOS strain) Cells grown in a monolayer, with a sample of a given compound diluted in a varying ratio added, were pretreated for 15 minutes. Then, the pretreated cells were infected with the herpes simplex virus type 1 (KOS strain) at an infecting ratio of 0.25 and left standing for 24 hours. At the end of the standing, the intracellular and extracellular amounts of virus were determined by the plaque assay with vero cells.

Question: What does the source list for `O=c1[nH]c(=O)n([C@H]2C[C@H](O)[C@@H](CO)O2)cc1I` [IDU, reference compound]?
Answer: Intracellular virus Control ratio %: >99.8%; Intracellular virus Control ratio % (second column group (c6-c9), extracellular virus per b76): >99.9%

From patent publication EP0450065A1, “ANTIVIRAL AGENT” (priority 1988, dated 1990)
